In US20100144672A1, “PYRIMIDINYL PYRAZOLES AS INSECTICIDES AND PARASITICIDE ACTIVE AGENTS” (BAYER CROPSCIENCE AG, priority 2006, published 2010):
Some of these results come from one statement about several compounds together.

What was measured:
Format in all cases: in vivo
[1] = system: larvae of the mustard beetle (Phaedon cochleariae); experiment: Phaedon test (PHAECO spray treatment); conditions: application rate 500 g/ha, after 7 d
[2] = system: caterpillars of the army worm (Spodoptera frugiperda); experiment: Spodoptera frugiperda test (SPODFR spray treatment); conditions: application rate 500 g/ha, after 7 d
Lucilia cuprina larvae = experiment: Lucilia cuprina test (LUCICU); conditions: application rate 100 ppm, after 2 d, treated horse meat
Protocol: Lucilia cuprina Test (LUCICU) Solvent: dimethyl sulphoxide To produce a suitable preparation of active compound, 1 part by weight of active compound is mixed with the stated amount of water, and the concentrate is diluted with water to the desired concentration. Containers containing horse meat treated with the active compound preparation of the desired concentration are populated with Lucilia cuprina larvae. After the desired period of time, the kill in % is determined 100% means that all larvae have been killed; 0% means that none of the larvae have been killed.

adult Musca domestica = experiment: Musca domestica test (MUSCDO); conditions: application rate 20 ppm, after 2 d, treated sponge
Boophilus microplus = Boophilus microplus test (BOOPMI injection); conditions: application rate 20 μg/animal, after 7 d, injection into abdomen
[3] = system: adult fleas (Ctenocephalides felis); experiment: Ctenocephalides felis; oral (CTECFE); conditions: application rate 20 ppm, after 2 d, oral via citrated cattle blood

Nc1c(-c2ccc(Cl)cc2Cl)c(C(F)(F)F)nn1-c1ncccn1 [Example 1-33]
≥ 80%: activity (effect in %, beetle larvae killed) [1] | activity (effect in %, caterpillars killed) [2] | activity (kill in %, larvae) (Lucilia cuprina larvae) | activity (kill in %, flies) (adult Musca domestica)

Nc1c(-c2ccc(Cl)c(F)c2)c(C(F)(F)F)nn1-c1ncccn1 [Example 1-73]
≥ 80%: activity (effect in %, beetle larvae killed) [1] | activity (effect in %, caterpillars killed) [2] | activity (kill in %, larvae) (Lucilia cuprina larvae) | activity (kill in %, flies) (adult Musca domestica) | activity in % (100% = no tick laid fertile eggs) (Boophilus microplus)

Nc1c(-c2ccc(I)c(F)c2)c(C(F)(F)F)nn1-c1ncccn1 [Example 1-77]
≥ 80%: activity (kill in %, flies) (adult Musca domestica)

Nc1c(-c2c(F)cc(Cl)cc2F)c(C(F)(F)F)nn1-c1ncccn1 [Example 2-13]
≥ 80%: activity (effect in %, beetle larvae killed) [1] | activity (effect in %, caterpillars killed) [2] | activity (kill in %, larvae) (Lucilia cuprina larvae) | activity (kill in %, flies) (adult Musca domestica) | activity in % (100% = no tick laid fertile eggs) (Boophilus microplus)

Nc1c(-c2ccc(Cl)c(C(F)(F)F)c2)c(C(F)(F)F)nn1-c1ncccn1 [Example 3-24]
≥ 80%: activity (effect in %, beetle larvae killed) [1] | activity (effect in %, caterpillars killed) [2] | activity (kill in %, larvae) (Lucilia cuprina larvae) | activity (kill in %, flies) (adult Musca domestica) | activity in % (100% = no tick laid fertile eggs) (Boophilus microplus)

Nc1c(-c2ccc(Cl)c(OC(F)(F)F)c2)c(C(F)(F)F)nn1-c1ncccn1 [Example 4-21]
≥ 80%: activity (effect in %, beetle larvae killed) [1] | activity (effect in %, caterpillars killed) [2] | activity (kill in %, larvae) (Lucilia cuprina larvae) | activity (kill in %, flies) (adult Musca domestica) | activity in % (100% = no tick laid fertile eggs) (Boophilus microplus)

Nc1c(-c2cc(Br)cc(Br)c2)c(C(F)(F)Br)nn1-c1ncccn1 [Example 15-158]
≥ 80%: activity (effect in %, beetle larvae killed) [1] | activity (effect in %, caterpillars killed) [2] | activity (kill in %, larvae) (Lucilia cuprina larvae) | activity in % (100% = no tick laid fertile eggs) (Boophilus microplus) | activity (kill in %, fleas) [3]

Nc1c(-c2cc(Cl)cc(OC(F)(F)F)c2)c(C(F)(F)Cl)nn1-c1ncccn1 [Example 15-159]
≥ 80%: activity (effect in %, beetle larvae killed) [1] | activity (effect in %, caterpillars killed) [2] | activity (kill in %, larvae) (Lucilia cuprina larvae) | activity (kill in %, flies) (adult Musca domestica)

Nc1c(-c2cc(Cl)cc(C(F)(F)F)c2)c(C(F)(F)Cl)nn1-c1ncccn1 [Example 15-161]
≥ 80%: activity (effect in %, beetle larvae killed) [1] | activity (effect in %, caterpillars killed) [2] | activity (kill in %, larvae) (Lucilia cuprina larvae) | activity in % (100% = no tick laid fertile eggs) (Boophilus microplus) | activity (kill in %, fleas) [3]

Nc1c(-c2cc(Cl)cc(C(F)(F)F)c2)c(C(F)(F)Br)nn1-c1ncccn1 [Example 15-162]
≥ 80%: activity (effect in %, beetle larvae killed) [1] | activity (effect in %, caterpillars killed) [2] | activity (kill in %, larvae) (Lucilia cuprina larvae) | activity in % (100% = no tick laid fertile eggs) (Boophilus microplus) | activity (kill in %, fleas) [3]

Nc1c(-c2cc(C(F)(F)F)cc(C(F)(F)F)c2)c(C(F)(F)Cl)nn1-c1ncccn1 [Example 15-163]
≥ 80%: activity (effect in %, beetle larvae killed) [1] | activity (effect in %, caterpillars killed) [2] | activity (kill in %, larvae) (Lucilia cuprina larvae) | activity in % (100% = no tick laid fertile eggs) (Boophilus microplus) | activity (kill in %, fleas) [3]

CC(F)(F)c1nn(-c2ncccn2)c(N)c1-c1cc(Cl)cc(Cl)c1 [Example 18-38]
≥ 80%: activity (effect in %, beetle larvae killed) [1] | activity (effect in %, caterpillars killed) [2] | activity (kill in %, larvae) (Lucilia cuprina larvae) | activity in % (100% = no tick laid fertile eggs) (Boophilus microplus) | activity (kill in %, fleas) [3]

CC(F)c1nn(-c2ncccn2)c(N)c1-c1cc(Cl)cc(C(F)(F)F)c1 (stereo not shown) [Example 18-232]
≥ 80%: activity (effect in %, beetle larvae killed) [1] | activity (effect in %, caterpillars killed) [2] | activity (kill in %, larvae) (Lucilia cuprina larvae) | activity in % (100% = no tick laid fertile eggs) (Boophilus microplus) | activity (kill in %, fleas) [3]

CC(F)(F)c1nn(-c2ncccn2)c(N)c1-c1cc(Cl)cc(C(F)(F)F)c1 [Example 18-235]
≥ 80%: activity (effect in %, beetle larvae killed) [1] | activity (effect in %, caterpillars killed) [2] | activity (kill in %, larvae) (Lucilia cuprina larvae) | activity in % (100% = no tick laid fertile eggs) (Boophilus microplus) | activity (kill in %, fleas) [3]
